For at least one compound, name, drawing or mass did not settle the structure.
Tested on: asthma patient having non-invasive fungus-induced rhinosinusitis
Experiment: Itraconazole solution by nebulizer (Example 8)
Type: in vivo, human
Settings: about two mL per day of about 10 mg itraconazole per mL PEG-400 in a nebulizer; after about two weeks

For `CCC(C)n1ncn(-c2ccc(N3CCN(c4ccc(OCC5COC(Cn6cncn6)(c6ccc(Cl)cc6Cl)O5)cc4)CC3)cc2)c1=O` (stereo not shown) [Itraconazole, itraconazole], the “asthma and rhinosinusitis conditions, overall symptom scores” value was “improvement”.

Reference: US20030091510A1, “METHODS FOR TREATING AND PREVENTING ASTHMA AND NON-INVASIVE FUNGUS-INDUCED RHINOSINUSITIS” (priority 1997, published 2003)
